## Primary screen of a compound library

Amino acid sequences for entries named in this document (tags omitted).
UniProt E9BF75, entry or part of it: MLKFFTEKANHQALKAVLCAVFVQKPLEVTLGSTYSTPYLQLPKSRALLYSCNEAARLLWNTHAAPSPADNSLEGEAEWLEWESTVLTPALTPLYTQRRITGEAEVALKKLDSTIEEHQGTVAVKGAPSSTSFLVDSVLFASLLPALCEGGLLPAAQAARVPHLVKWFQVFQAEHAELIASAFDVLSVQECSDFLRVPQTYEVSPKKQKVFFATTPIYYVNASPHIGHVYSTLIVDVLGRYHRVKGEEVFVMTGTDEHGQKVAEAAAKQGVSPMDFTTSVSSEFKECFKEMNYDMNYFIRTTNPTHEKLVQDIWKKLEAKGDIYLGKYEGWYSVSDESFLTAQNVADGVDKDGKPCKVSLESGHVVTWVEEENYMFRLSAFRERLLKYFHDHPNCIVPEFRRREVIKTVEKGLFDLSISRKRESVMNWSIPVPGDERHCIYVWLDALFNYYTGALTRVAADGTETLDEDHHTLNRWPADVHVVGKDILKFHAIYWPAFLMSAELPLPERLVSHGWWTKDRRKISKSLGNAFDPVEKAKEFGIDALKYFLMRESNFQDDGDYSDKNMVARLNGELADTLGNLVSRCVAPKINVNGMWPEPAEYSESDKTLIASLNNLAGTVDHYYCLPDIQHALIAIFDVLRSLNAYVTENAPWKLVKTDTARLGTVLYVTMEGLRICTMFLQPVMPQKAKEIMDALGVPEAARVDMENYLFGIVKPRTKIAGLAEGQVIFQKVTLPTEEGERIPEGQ

Measurements from “University of Dundee, Small-Polar-MMV Screening Library” (2021), ChEMBL document CHEMBL3988442.

A: 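Primary screen of methionyl-tRNA synthetase; the read-out is not stated. Target: Methionyl-tRNA synthetase (putative), Leishmania donovani (UniProt E9BF75). The test concentration is not given. The values are filed as inhibition. Size under these conditions: about 68,000 compounds, about 24 of them at 50% or above in at least one test.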
B: 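Assay on Mycobacterium tuberculosis, filed only as a heat shock assay from Cornell; the read-out is not stated. The concentration is filed as 10 mM, unlikely as a test dose, so the dose is not known. Direction is inferred from retests: higher values go with stronger inhibition. Of about 69,000 compounds tested this way, about 930 (1.4%) reached 50% or more in at least one test.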

Results are percentages, as filed. The controls that fix the scale are not given in the record; negative values are as filed. The compounds are a random part of those screened.

With O=C(COCC1CC1)Nc1cc(S(=O)(=O)NC2CC2)ccc1F the screen gave A: 7.521%; B: 4.919%. With CCCc1cncnc1N1CCC(NCc2ccncc2)CC1 the screen gave A: 5.292%; B: 4.573%. With Cc1nc(CN(CCS(C)(=O)=O)C(C)C)no1 the screen gave A: 6.866%; B: 14.89%. CCOc1ccc(CN(C)C2CCN(c3cc(C)nn3C)C2=O)cc1 (stereo unspecified) read A: 3.125%; B: -4.46%. CN(C)[C@@H]1CCN(C(=O)c2ccccn2)[C@H]1Cc1cnn(C)c1 gave A: 8.458%; B: 76.59%. Result for CC(=O)NCC(=O)N1CCc2c(CN(C)C)nn(C(C)C)c2C1 was A: 19.93%; B: -0.6407%. N#CCCCS(=O)(=O)NC1(c2ccc(F)cc2)CC1 gave A: 13.35%; B: 1.567%.

With O=C(c1ccc(N2CCCC2)nn1)N1CCCC(n2cccn2)C1 (stereo unspecified) the screen gave A: 14.17%; B: -12.42%. Result for Cc1csc(CN2CCC3(CC2)COC(COCC2CC2)C3)n1.O=C(O)C(F)(F)F (stereo unspecified) was B: 36.28%. With CCOc1c(Br)cc(C2C3=C(COC3=O)Nc3[nH]nc(C)c32)cc1OC (stereo unspecified) the screen gave A: -1.299%; B: 9.293%. CSc1cc2c(cc1NC(=O)NCC(=O)N(C)C)OCCO2 gave B: -15.82%. Result for CCn1c(C)nnc1CN(C)C1CCN(Cc2sc(C)nc2C)C1 (stereo unspecified) was A: 8.541%; B: 38.48%. CCn1ccnc1CN1CCN(CC(=O)NC(C)(C#N)C2CC2)CC1 (stereo unspecified) gave A: 14.29%; B: 5.505%. With CCOCC1CN(Cc2ccoc2)Cc2nn(CC3CC3)cc21 (stereo unspecified) the screen gave A: 9.524%.

Result for O=C(c1cc(-c2cccs2)on1)N1CCCCC1Cn1cccn1 (stereo unspecified) was A: 12.57%; B: -12.61%. Cc1cc(N(C)CCN(C)C)n2nc(C)cc2n1 read A: 13.66%; B: -8.3%. Result for CC(=O)NC1CCCN(Cc2ccc(OCc3ccccn3)cc2)C1 (stereo unspecified) was A: 19.79%; B: 3.576%. For COc1ccc(C(C)=O)cc1CN1CCn2cccc2C1C (stereo unspecified) the result was A: 27.06%; B: 9.9%. Cc1cc(F)ccc1-c1ccccc1CC1CNCCNC1=O.Cl (stereo unspecified) gave B: 10.68%. With Cc1csc(N2CCN(CC(=O)Nc3c(C)n[nH]c3C)CC2C)n1 (stereo unspecified) the screen gave A: 2.222%; B: -6.654%. O=C(O)C(F)(F)F.O=C(O)C(F)(F)F.[H][C@@]12CCCO[C@]1([H])[C@@H](OCc1cccc(C)n1)CN2c1nnc(C)s1 read B: 22.6%.

With c1cnc(-c2nn3c(CN4CCOCC4)nnc3s2)cn1 the screen gave A: 9.799%; B: -2.109%. With CC(=O)N1CCC(c2c(CN(C)C)cnc3cc(C)nn23)CC1 the screen gave A: 0%; B: -2.394%. Result for Cc1ccc(-c2nc(C(=O)NCC3CCOC3)cs2)cc1 (stereo unspecified) was A: 15.1%; B: 3.076%. O=C(Cc1ccsc1)N1CCC(c2ccncc2)CC1 gave A: 6.034%; B: -10.96%. CNC(=O)CCCNCc1c(C)nn(C)c1N(C)C read A: 7.975%; B: 8.122%.

The first 3 entries again:

Result for O=C(COCC1CC1)Nc1cc(S(=O)(=O)NC2CC2)ccc1F was A: 7.521%; B: 4.919%.
Result for CCCc1cncnc1N1CCC(NCc2ccncc2)CC1 was A: 5.292%; B: 4.573%.
Result for Cc1nc(CN(CCS(C)(=O)=O)C(C)C)no1 was A: 6.866%; B: 14.89%.